Experimental data: patent US20200347036A1, “SOLID FORMS OF AN HIV PROTEASE INHIBITOR” (Gilead Sciences, Inc., priority 2019, published 2020)
Structures can show the parent of a compound that is named as a salt. At least one structure is not confirmed: it was looked up by name or label, or the drawing left a doubt. Marks after values point to notes of the source that are not given here.

How the values were obtained:
[1] = Dynamic vapor sorption (DVS), hygroscopicity of solids; assay type: physicochemical; conditions: for hygroscopicity (in words, from DVS sorption isotherm): 25° C.; for DVS (%): Table 13
[2] = Polymorph screening by stirring crystalline Form I in a variety of solvents; assay type: physicochemical; conditions: water, water/EtOH (1:1), acetonitrile, methanol, ethanol, acetone, IPA, MEK, MIBK, DCM, THF, 2-MeTHF, EtOAc, IPAc, MTBE, toluene at about 22° C.
[3] = over the range of 0% to 90% RH at 25° C.

CC(C)(C[C@]1(c2ccc(-c3cnn(C4CC4)n3)cc2)NC(=N)N([C@H](COC(=O)NC2(C(F)F)CC2)c2ccc(Cl)c(-c3nncn3C(F)F)c2)C1=O)C(F)(F)F [Compound 1 phosphate salt, crystalline Form I] [(S)-2-(4-chloro-3-(1-(difluoromethyl)-1H-1,2,4-triazol-5-yl)phenyl)-2-((R)-4-(4-(2-cyclopropyl-2H-1,2,3-triazol-4-yl)phenyl)-2-imino-5-oxo-4-(3,3,3-trifluoro-2,2-dimethylpropyl)imidazolidin-1-yl)ethyl(1-(difluoromethyl)cyclopropyl)carbamate]
hygroscopicity (in words, from DVS sorption isotherm) [1]: moderately hygroscopic | DVS (%) ([1]; measured at 0% to 90% RH (footnote), listed as Phosphate Form I): 2.7% | water uptake as determined by DVS [1, 3]: about 2.7% | water uptake as determined by DVS ([1]; over the range of 10% to 90% RH at 25° C., listed as crystalline Form I of the phosphate salt of Compound 1): about 2.7%

CC(C)(C[C@]1(c2ccc(-c3cnn(C4CC4)n3)cc2)NC(=N)N([C@H](COC(=O)NC2(C(F)F)CC2)c2ccc(Cl)c(-c3nncn3C(F)F)c2)C1=O)C(F)(F)F [Compound 1 hydrochloride salt, crystalline Form III] [(S)-2-(4-chloro-3-(1-(difluoromethyl)-1H-1,2,4-triazol-5-yl)phenyl)-2-((R)-4-(4-(2-cyclopropyl-2H-1,2,3-triazol-4-yl)phenyl)-2-imino-5-oxo-4-(3,3,3-trifluoro-2,2-dimethylpropyl)imidazolidin-1-yl)ethyl(1-(difluoromethyl)cyclopropyl)carbamate]
hygroscopicity (in words, from DVS sorption isotherm) [1]: slightly hygroscopic | DVS (%) ([1]; measured at 0% to 90% RH (footnote), listed as HCl salt Form III): 1.4% | water uptake as determined by DVS [1, 3]: about 1.4% | water uptake as determined by DVS ([1]; over the range of 0% to 90% RH at 25° C., listed as crystalline Form III of the hydrochloride salt of Compound 1): about 1.4%

CC(C)(C[C@]1(c2ccc(-c3cnn(C4CC4)n3)cc2)NC(=N)N([C@H](COC(=O)NC2(C(F)F)CC2)c2ccc(Cl)c(-c3nncn3C(F)F)c2)C1=O)C(F)(F)F [Compound 1 succinate salt, crystalline Form I] [(S)-2-(4-chloro-3-(1-(difluoromethyl)-1H-1,2,4-triazol-5-yl)phenyl)-2-((R)-4-(4-(2-cyclopropyl-2H-1,2,3-triazol-4-yl)phenyl)-2-imino-5-oxo-4-(3,3,3-trifluoro-2,2-dimethylpropyl)imidazolidin-1-yl)ethyl(1-(difluoromethyl)cyclopropyl)carbamate]
hygroscopicity (in words, from DVS sorption isotherm) [1]: slightly hydroscopic | DVS (%) ([1]; measured at 10% to 90% RH (footnote *)): 0.7* % | water uptake as determined by DVS ([1]; over the range of 10% to 90% RH at 25° C.): about 0.7% | water uptake as determined by DVS ([1]; over the range of 10% to 90% RH at 25° C., listed as crystalline Form I of the succinate salt of Compound 1): about 0.7%

CC(C)(C[C@]1(c2ccc(-c3cnn(C4CC4)n3)cc2)NC(=N)N([C@H](COC(=O)NC2(C(F)F)CC2)c2ccc(Cl)c(-c3nncn3C(F)F)c2)C1=O)C(F)(F)F [Compound 1 hydrochloride salt, crystalline Form II] [(S)-2-(4-chloro-3-(1-(difluoromethyl)-1H-1,2,4-triazol-5-yl)phenyl)-2-((R)-4-(4-(2-cyclopropyl-2H-1,2,3-triazol-4-yl)phenyl)-2-imino-5-oxo-4-(3,3,3-trifluoro-2,2-dimethylpropyl)imidazolidin-1-yl)ethyl(1-(difluoromethyl)cyclopropyl)carbamate]
hygroscopicity (in words, from DVS sorption isotherm) [1]: moderately hygroscopic | DVS (%) ([1]; measured at 0% to 90% RH (footnote), listed as HCl salt Form II): 3% | water uptake as determined by DVS [1, 3]: about 3% | water uptake as determined by DVS ([1]; over the range of 0% to 90% RH at 25° C., listed as crystalline Form II of the hydrochloride salt of Compound 1): about 3.0%

CC(C)(C[C@]1(c2ccc(-c3cnn(C4CC4)n3)cc2)NC(=N)N([C@H](COC(=O)NC2(C(F)F)CC2)c2ccc(Cl)c(-c3nncn3C(F)F)c2)C1=O)C(F)(F)F [(S)-2-(4-chloro-3-(1-(difluoromethyl)-1H-1,2,4-triazol-5-yl)phenyl)-2-((R)-4-(4-(2-cyclopropyl-2H-1,2,3-triazol-4-yl)phenyl)-2-imino-5-oxo-4-(3,3,3-trifluoro-2,2-dimethylpropyl)imidazolidin-1-yl)ethyl(1-(difluoromethyl)cyclopropyl)carbamate]
behaviour of solids in tested solvents [2]: remained undissolved in each of the tested solvents | hygroscopicity (in words, from DVS sorption isotherm) ([1]; listed as Compound 1, hydrochloride salt, crystalline Form I): slightly hygroscopic | hygroscopicity (in words, from DVS sorption isotherm) ([1]; listed as Compound I maleate salt, crystalline Form I): slightly hydroscopic | DVS (%) ([1]; measured at 0% to 90% RH (footnote), listed as HCl salt Form I): 1.8% | DVS (%) ([1]; measured at 0% to 90% RH (footnote), listed as Maleate Form I): 0.8% | water uptake as determined by DVS ([1]; over the range of 0% to 90% RH at 25° C., listed as Compound I maleate salt, crystalline Form I): about 0.7% | water uptake as determined by DVS ([1]; over the range of 0% to 90% RH at 25° C., listed as crystalline Form I of the maleate salt of Compound 1): about 0.7% | water uptake as determined by DVS ([1]; over the range of 10% to 90% RH at 25° C., listed as Compound 1, hydrochloride salt, crystalline Form I): 1.8% | water uptake as determined by DVS ([1]; over the range of 10% to 90% RH at 25° C., listed as crystalline Form I of the hydrochloride salt of Compound 1): about 1.8%
